According to US4217271A, “Basic azo dyestuffs containing a n-picolinium alkylene amino phenyl group” (Imperial Chemical Industries Limited, priority 1977, dated 1980):

Assay: Shade on Polyacrylonitrile
Details: chloride anion

| SMILES | Shade on Polyacrylonitrile |
| --- | --- |
| CCN(CC[n+]1ccc(C)cc1)c1ccc(N=Nc2cc(Cl)c(S(=O)(=O)N(C)C)cc2Cl)cc1 [Example 8] | Orange |
| CCN(CC[n+]1ccc(C)cc1)c1ccc(N=Nc2ncc([N+](=O)[O-])s2)c(C)c1 [Example 7] | Reddish-blue |
| CCN(CC[n+]1ccc(C)cc1)c1ccc(N=Nc2ccc([N+](=O)[O-])cc2C#N)c(C)c1 [Example 3] | Bordeaux |
| CCN(CC[n+]1ccc(C)cc1)c1ccc(N=Nc2nc(-c3ccccc3)ns2)cc1 [Example 10] | Red |
| CCN(CC[n+]1ccc(C)cc1)c1ccc(N=Nc2cc(Cl)ccc2C#N)cc1 [Example 4] | Orange |
| CCN(CC[n+]1cccc(C)c1)c1ccc(N=Nc2ccc([N+](=O)[O-])cc2Cl)cc1 [Example 13] | Red |
| CCN(CC[n+]1ccc(C)cc1)c1ccc(N=Nc2ccc([N+](=O)[O-])cc2C#N)cc1 [Example 2] | Rubine |
| CCN(CC[n+]1ccc(C)cc1)c1ccc(N=Nc2snc3ccc([N+](=O)[O-])cc23)c(C)c1 [Example 5] | Reddish-blue |
| CCN(CC[n+]1ccc(C)cc1)c1ccc(N=Nc2nc(-c3ccccc3)ns2)c(C)c1 [Example 11] | Red |
| CCN(CC[n+]1ccc(C)cc1)c1ccc(N=Nc2c(Cl)cc(S(=O)(=O)N(C)C)cc2Cl)cc1 [Example 9] | Reddish-yellow |
| CCN(CC[n+]1ccc(C)cc1)c1ccc(N=Nc2ncc([N+](=O)[O-])s2)cc1 [Example 6] | Violet |
| CCN(CC[n+]1ccc(C)cc1)c1ccc(N=Nc2c(Br)cc([N+](=O)[O-])cc2[N+](=O)[O-])cc1 [Example 12] | Violet |

Assay: Dyeing of Orlon: shade and fastness
Details: not given

| SMILES | shade on Orlon |
| --- | --- |
| CCN(CC[n+]1ccc(C)cc1)c1ccc(N=Nc2ccc([N+](=O)[O-])cc2Cl)cc1 [Example 1, 4-nitro-2-chloroaniline N-2-(N'-ethylanilino)-ethyl-4-methylpyridinium chloride] | yellowish-red |
